Binding data for one molecule are collected here from PMC3724829.

Amino acid sequences for entries named in this document (tags omitted).
UniProt Q96EB6: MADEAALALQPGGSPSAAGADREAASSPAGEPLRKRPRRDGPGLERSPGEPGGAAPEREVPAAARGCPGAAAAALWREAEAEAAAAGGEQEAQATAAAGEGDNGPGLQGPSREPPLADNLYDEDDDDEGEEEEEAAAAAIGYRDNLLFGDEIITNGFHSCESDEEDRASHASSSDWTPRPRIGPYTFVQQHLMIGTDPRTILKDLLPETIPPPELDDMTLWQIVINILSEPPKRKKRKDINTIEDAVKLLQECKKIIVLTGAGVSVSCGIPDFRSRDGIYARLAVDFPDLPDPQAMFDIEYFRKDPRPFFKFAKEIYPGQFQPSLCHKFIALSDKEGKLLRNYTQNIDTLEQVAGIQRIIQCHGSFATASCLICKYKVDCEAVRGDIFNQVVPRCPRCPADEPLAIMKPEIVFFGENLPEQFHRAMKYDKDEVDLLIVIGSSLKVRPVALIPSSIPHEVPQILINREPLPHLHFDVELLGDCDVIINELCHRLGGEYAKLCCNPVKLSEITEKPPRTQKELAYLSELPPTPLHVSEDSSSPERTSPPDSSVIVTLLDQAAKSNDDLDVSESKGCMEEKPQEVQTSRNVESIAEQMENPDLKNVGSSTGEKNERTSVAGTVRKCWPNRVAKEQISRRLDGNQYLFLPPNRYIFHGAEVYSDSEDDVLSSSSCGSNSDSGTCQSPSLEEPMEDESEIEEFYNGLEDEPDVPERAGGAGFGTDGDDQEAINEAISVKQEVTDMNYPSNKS

No constants are given. Whether binding was seen depends on the method and setting. In cells and extracts the contact can be indirect. Some entries that bind do so weakly or less than the wild type. Where a sequence is shown, tags or fusion partners need not be part of it.

This test concerns the target Flag tagged SIRT1 (human (cDNA library of HepG2 cells)) (UniProt Q96EB6). As to the kind of experiment: co-IP; 293T cells cotransfected with Myc tagged TRβ1 and Flag tagged SIRT1, treated +/- 10 nM T3 for 12 h; RIPA lysate (400 µg) with anti-Flag or anti-myc agarose beads, 12 h at 4°C; Western blot. A general note: Immunoblotting shows a protein as a band on a membrane.

B1: Myc tagged TRβ1 (receptor, UniProt P10828-1 1-461)
chain: MTPNSMTENGLTAWDKPKHCPDREHDWKLVGMSEACLHRKSHSERRSTLKNEQSSPHLIQTTWTSSIFHLDHDDVNDQSVSSAQTFQTEEKKCKGYIPSYLDKDELCVVCGDKATGYHYRCITCEGCKGFFRRTIQKNLHPSYSCKYEGKCVIDKVTRNQCQECRFKKCIYVGMATDLVLDDSKRLAKRKLIEENREKRRREELQKSIGHKPEPTDEEWELIKTVTEAHVATNAQGSHWKQKRKFLPEDIGQAPIVNAPEGGKVDLEAFSHFTKIITPAITRVVDFAKKLPMFCELPCEDQIILLKGCCMEIMSLRAAVRYDPESETLTLNGEMAVTRGQLKNGGLGVVSDAIFDLGMSLSSFNLDDTEVALLQAVLLMSSDRPGLACVERIEKYQDSFLLAFEHYINYRKHHVTHFWPKLLMKVTDLRMIGACHASRFLHMKVECPTELFPPLFLEVFED
Turning to B1, the binding entry is given as “binds”.
